Reference: paper PMC12286604
Results are given in words; binding and its absence hold for the method and conditions named. Binding seen in cells or lysates may run through a third protein. Some entries that bind do so weakly or less than the wild type.

By UniProt entry, the sequences of proteins in these tests, tags left out.
UniProt P10415: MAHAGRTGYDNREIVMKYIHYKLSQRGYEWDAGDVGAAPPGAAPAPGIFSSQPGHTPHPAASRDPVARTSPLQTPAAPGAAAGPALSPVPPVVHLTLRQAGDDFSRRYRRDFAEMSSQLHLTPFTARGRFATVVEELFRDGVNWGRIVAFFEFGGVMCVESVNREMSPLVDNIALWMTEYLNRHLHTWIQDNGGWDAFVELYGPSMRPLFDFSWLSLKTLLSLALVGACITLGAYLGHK
UniProt Q93034: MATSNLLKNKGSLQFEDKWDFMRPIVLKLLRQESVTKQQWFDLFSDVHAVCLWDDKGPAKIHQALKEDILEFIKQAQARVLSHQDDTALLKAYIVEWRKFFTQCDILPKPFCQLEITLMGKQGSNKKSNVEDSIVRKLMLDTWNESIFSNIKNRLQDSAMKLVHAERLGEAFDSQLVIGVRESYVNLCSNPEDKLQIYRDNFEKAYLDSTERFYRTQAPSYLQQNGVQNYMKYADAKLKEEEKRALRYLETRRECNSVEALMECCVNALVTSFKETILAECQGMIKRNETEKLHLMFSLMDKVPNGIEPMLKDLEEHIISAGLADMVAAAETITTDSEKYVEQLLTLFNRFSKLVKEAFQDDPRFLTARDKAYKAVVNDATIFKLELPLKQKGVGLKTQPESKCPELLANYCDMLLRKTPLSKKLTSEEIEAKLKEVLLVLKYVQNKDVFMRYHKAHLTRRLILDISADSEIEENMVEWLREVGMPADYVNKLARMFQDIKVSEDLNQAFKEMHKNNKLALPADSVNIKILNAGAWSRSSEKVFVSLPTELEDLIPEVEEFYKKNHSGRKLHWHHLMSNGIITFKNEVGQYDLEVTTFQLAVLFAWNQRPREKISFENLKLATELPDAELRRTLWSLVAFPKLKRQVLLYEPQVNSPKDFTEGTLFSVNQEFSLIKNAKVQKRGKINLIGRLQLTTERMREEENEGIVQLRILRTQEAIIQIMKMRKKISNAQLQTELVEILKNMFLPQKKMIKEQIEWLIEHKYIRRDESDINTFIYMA
UniProt Q15370: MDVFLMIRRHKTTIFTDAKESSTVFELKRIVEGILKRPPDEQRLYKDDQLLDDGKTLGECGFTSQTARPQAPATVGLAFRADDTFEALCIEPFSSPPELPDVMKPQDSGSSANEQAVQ
UniProt Q07820: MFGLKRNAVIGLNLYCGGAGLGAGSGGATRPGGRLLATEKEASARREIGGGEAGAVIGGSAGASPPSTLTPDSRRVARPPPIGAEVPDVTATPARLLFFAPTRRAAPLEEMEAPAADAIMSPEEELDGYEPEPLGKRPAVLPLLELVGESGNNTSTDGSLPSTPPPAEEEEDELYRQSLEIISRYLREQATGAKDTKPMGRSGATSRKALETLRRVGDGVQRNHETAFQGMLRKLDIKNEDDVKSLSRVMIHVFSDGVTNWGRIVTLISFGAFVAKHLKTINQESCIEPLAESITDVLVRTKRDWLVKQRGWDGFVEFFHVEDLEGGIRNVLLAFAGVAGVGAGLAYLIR
UniProt Q9UBF6: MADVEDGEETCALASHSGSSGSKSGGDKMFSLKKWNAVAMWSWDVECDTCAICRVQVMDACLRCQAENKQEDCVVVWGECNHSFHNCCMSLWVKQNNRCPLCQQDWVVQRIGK

Key:
[1] = molecular target: T1, WSB2 (WD repeat and SOCS box-containing protein 2), wild type, transfected (UniProt Q9NYS7); assay: co-IP; semi-endogenous co-IP: anti-FLAG IP from 293T cells transfected with WSB2, endogenous partners detected by western blot
T1 sequence: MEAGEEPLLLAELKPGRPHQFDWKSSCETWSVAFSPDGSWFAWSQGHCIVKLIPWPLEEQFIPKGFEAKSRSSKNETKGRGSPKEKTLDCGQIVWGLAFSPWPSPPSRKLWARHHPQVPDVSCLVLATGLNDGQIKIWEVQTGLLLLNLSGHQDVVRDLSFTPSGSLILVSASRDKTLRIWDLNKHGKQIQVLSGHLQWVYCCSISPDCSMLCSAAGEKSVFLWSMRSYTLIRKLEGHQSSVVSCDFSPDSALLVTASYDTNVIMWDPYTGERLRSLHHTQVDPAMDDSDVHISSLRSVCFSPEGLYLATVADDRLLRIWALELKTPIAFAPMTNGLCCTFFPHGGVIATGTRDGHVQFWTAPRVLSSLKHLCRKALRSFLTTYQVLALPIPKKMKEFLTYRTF

[2] = molecular target: T2, NOXA, endogenous (human (endogenous in 293T)) (UniProt Q13794); assay: co-IP; endogenous co-IP: IgG or anti-NOXA, anti-MCL-1, anti-BCL-2, anti-BCL-XL or anti-BAD antibodies, 293T whole-cell lysate, western blot
T2 sequence: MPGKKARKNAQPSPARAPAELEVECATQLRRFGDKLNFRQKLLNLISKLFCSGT

| binding [1] | binding [2] | Substance |
| --- | --- | --- |
| binds | – | BCL-2, endogenous (from UniProt P10415 1-239) |
| binds | – | BCL-XL, endogenous (from UniProt Q07817-1 1-233) |
| binds | binds | Cullin 5, endogenous (from UniProt Q93034 1-780) |
| binds | binds | Elongin B, endogenous (from UniProt Q15370 1-118) |
| binds | – | MCL-1, endogenous (from UniProt Q07820 1-350) |
| binds | binds | RBX2, endogenous (from UniProt Q9UBF6 1-113) |
